# Laboratory results: PubChem BioAssay AID996 (National Center for Advancing Translational Sciences (NCATS), 2007)
# Some of the results follow. The main result of the screen is listed elsewhere. These columns were measured beside it and carry no call. The note in brackets gives the kind of curve behind each potency; many fits are weak.
# Target: Caspase-1 (Homo sapiens) (UniProt P29466)
# Test: Concentration-Response Counterscreen for Redox Active Inhibitors of Caspase-1: Summary
# Conditions: caspase-1 enzyme activity, redox counterscreen (DTT/Cys/catalase)
# Source text: NIH Molecular Libraries Screening Centers Network [MLSCN]
# NIH Chemical Genomics Center [NCGC]
# PI Name: Dr. James Wells,
# Dr. Enrique Perez-Paya, Dr.Janice Williams, Dr. Dennis Wolan, a person
# The caspases (Cysteine Aspartyl Protease) comprise a related family of 14 dimeric proteases that are critical mediators of apoptosis (programmed cell death) and inflammation. The caspases represent an important class of drug targets for stroke, ischemia, cancer and inflammatory diseases. […] One goal of this project was to identify compounds that act as allosteric inhibitors via stabilizing the procaspase form of the enzyme. Previous work in Well's laboratory has shown that such allosteric inhibitors can be identified and these act by binding at the dimer interface of enzyme (Hardy, Lam et al., 2004).
# The biochemical assay was configured using purified caspase 1 at a high enzyme concentration to promote formation of the homodimers and thus facilitate the identification of allosteric inhibitors. The overall goal was to identify reversible inhibitors with better drug-like properties than the currently available set of aspartyl-containing peptidomimetics that covalently bind the active site. Caspase 1 was assayed using the profluorescent substrate Ac-WEHD-AFC. After initiation of the assay with substrate the plates were rapidly read using an automated robotic system (Kalypsys, Inc.) to maintain consistent timing. A kinetic mode of detection was used where the initial rate was collected (estimated final product formation was ~10%). Product formation was also measured after 1 hour. […]
# Caspase 1 was prepared in buffer (50 mM HEPES pH 7.5, 50 mM KCl, 200 mM NaCl, 0.1% CHAPS and either 10 mM DTT, 10 mM Cys (Aldrich cat# 861677), or 10mM DTT and 50 units/well catalase (from bovine liver, Sigma cat#100)) at a concentration of 66.6 nM and 3 uL was dispensed to all wells using black solid Kalypsys 1536-well plates. […] The plates were then exposed using 405 nm excitation/520 nm emission filters for 4 sec and read at 20 sec intervals for 3 min. […]
smiles,measurement,setting,value
COc1cc2c(cc1OC)-c1c(OC)c(OC)c(C=O)c3c1[C@H](C2)N(C)CC3,AC50,measured here: DTT 1 h read,"31.6 µM [falling, partial curve]"
same,AC50,measured here: DTT rate,"25.1 µM [falling, partial curve]"
same,AC50,measured here: cysteine rate,"31.6 µM [falling, partial curve]"
